Here are results for 39 sequences from paper PMC7862700.

By UniProt entry, the sequences of proteins in these tests, tags left out. Where a name states a change or a piece, a line headed by the entry shows the natural chain unless it says otherwise.
UniProt O43186: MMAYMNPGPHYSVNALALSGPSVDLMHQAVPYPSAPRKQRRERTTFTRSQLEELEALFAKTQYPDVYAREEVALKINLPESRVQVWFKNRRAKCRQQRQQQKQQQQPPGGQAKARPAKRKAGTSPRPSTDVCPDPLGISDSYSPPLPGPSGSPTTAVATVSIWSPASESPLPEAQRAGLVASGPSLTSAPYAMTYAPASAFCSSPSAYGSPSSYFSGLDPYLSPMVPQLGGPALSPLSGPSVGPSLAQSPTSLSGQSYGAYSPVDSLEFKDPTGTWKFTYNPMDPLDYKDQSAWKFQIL

The list shows a part of the results, in another mix than the full data. At the low end of the ranking the order means little.

One experiment deals with T1, FEV (UniProt Q99581).
T1 sequence: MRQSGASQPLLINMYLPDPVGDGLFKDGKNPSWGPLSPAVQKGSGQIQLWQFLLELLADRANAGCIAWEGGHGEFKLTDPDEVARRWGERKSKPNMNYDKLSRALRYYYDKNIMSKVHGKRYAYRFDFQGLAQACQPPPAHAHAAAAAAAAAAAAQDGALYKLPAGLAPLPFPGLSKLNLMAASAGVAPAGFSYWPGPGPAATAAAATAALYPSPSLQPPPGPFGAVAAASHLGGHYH
In words: DAPPL (digital affinity profiling via proximity ligation, sequencing). The note with it: 10 mM Tris-HCl pH 7.5, 50 mM NaCl, 1 mM DTT, 4% glycerol, room temperature, 30 min; GST-TFs on glutathione beads, 16-mer random dsDNA library, 0.1% …; high values mean tight binding; double strand, one strand shown; scale: fold enrichment (6-mer frequency, TF over GST control).
CCCCAG displayed a binding signal of 0.985.
On the same count and under the same terms, then GTGTAA, with 0.92; and CATGTT, with 0.943.
Same read-out and setting: then GGCAAT, with 0.961; and CGCGCG, with 0.899; and AAACTG, with 1.06.
Sequence TGAAGG displayed a binding signal of 0.86.
The same measure, in the same setting: then CCTGGC, with 0.956; and CCGCAA, with 1.29.
CTTCTT: the binding signal worked out at 1.48.
The sequence GCGTCA registered a binding signal of 0.899.
Still for that read-out and setting: then ATCAAG, with 0.926; and CATTTT, with 1.19; and ACACGG, with 0.977.
Turning to GAGAAA, the binding signal worked out at 0.702.
On the same count and under the same terms, then AGGTTC, with 0.843; and GATGGG, with 0.895; and AGAACA, with 0.967.
Still for that read-out and setting: then CCTGCC, with 1.33.
With TACGAG, the binding signal is 0.876.
The same measure, in the same setting: then TTTTCC, with 1.74; and CCCTAG, with 0.936.
As to CGGACC, the binding signal stood at 0.941.
Still for that read-out and setting: then CACTGA, with 0.98.
Take CCGTTA: the binding signal is 0.957.
On the same count and under the same terms, then AGCATA, with 0.895; and CTGGTG, with 0.857.
Same read-out and setting: then ACTGTC, with 0.892; and TGCACC, with 1.23; and TGAAGA, with 0.961.
Still for that read-out and setting: then AAGGGT, with 0.958; and GTGCTG, with 0.865.
CTGGGC yielded a binding signal of 0.964.
On to GATCAA, for which the binding signal was 0.956.
The same measure, in the same setting: then CAGCGC, with 0.982.
Sequence ATCAGA yielded a binding signal of 0.905.
With GCTAGG, the binding signal came to 0.904.
On to GCGAAC, for which the binding signal was 0.927.
The same measure, in the same setting: then GACCGA, with 0.858.

A further experiment concerns the target CRX (UniProt O43186). The description is as above. The note with it: 10 mM Tris-HCl pH 7.5, 50 mM NaCl, 1 mM DTT, 4% glycerol, room temperature, 30 min; GST-TFs on glutathione beads, 16-mer random dsDNA library, 0.1% …; high values mean tight binding; double strand, one strand shown; scale: fold enrichment (6-mer frequency, TF over GST control).
In turn, CCCCAG displayed a binding signal of 0.943.
On the same count and under the same terms, then GTGTAA, with 0.916.
On the same count and under the same terms, then CATGTT, with 0.884; and GGCAAT, with 0.813.
Still for that read-out and setting: then CGCGCG, with 0.802; and AAACTG, with 0.987; and TGAAGG, with 0.86.
CCTGGC: the binding signal was determined as 0.803.
CCGCAA: the binding signal worked out at 1.01.
The sequence CTTCTT came in with a binding signal of 1.89.
On the same count and under the same terms, then GCGTCA, with 0.646; and ATCAAG, with 1.19.
In the case of CATTTT, the binding signal came out at 1.04.
Turning to ACACGG, the binding signal was 0.743.
The same measure, in the same setting: then GAGAAA, with 0.761; and AGGTTC, with 0.769; and GATGGG, with 0.825.
AGAACA had a binding signal of 1.22.
With CCTGCC, the binding signal stood at 0.938.
As for TACGAG, the binding signal amounted to 1.05.
Still for that read-out and setting: then TTTTCC, with 1.44; and CCCTAG, with 0.959.
Still for that read-out and setting: then CGGACC, with 0.545; and CACTGA, with 0.819; and CCGTTA, with 0.872.
The same measure, in the same setting: then AGCATA, with 1; and CTGGTG, with 0.782; and ACTGTC, with 0.685.
The sequence TGCACC yielded a binding signal of 0.815.
The sequence TGAAGA yielded a binding signal of 1.
Same read-out and setting: then AAGGGT, with 0.987.
In the case of GTGCTG, the binding signal was determined as 0.657.
The same measure, in the same setting: then CTGGGC, with 0.849; and GATCAA, with 1.52.
Sequence CAGCGC displayed a binding signal of 0.8.
Same read-out and setting: then ATCAGA, with 1.25.
Same read-out and setting: then GCTAGG, with 0.854; and GCGAAC, with 0.8.
Take GACCGA: the binding signal was determined as 0.793.

The target in another experiment is T2, ELF5 (UniProt Q9UKW6-2).
T2 sequence: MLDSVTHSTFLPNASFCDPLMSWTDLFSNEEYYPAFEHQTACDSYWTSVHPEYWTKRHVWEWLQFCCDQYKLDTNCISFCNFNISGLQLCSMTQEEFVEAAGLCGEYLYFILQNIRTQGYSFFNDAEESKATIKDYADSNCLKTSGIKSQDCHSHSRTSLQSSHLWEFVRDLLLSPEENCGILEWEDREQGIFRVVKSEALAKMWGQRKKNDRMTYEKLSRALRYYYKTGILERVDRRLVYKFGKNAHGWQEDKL
The description is as above. The note with it: 10 mM Tris-HCl pH 7.5, 50 mM NaCl, 1 mM DTT, 4% glycerol, room temperature, 30 min; GST-TFs on glutathione beads, 16-mer random dsDNA library, 0.1% …; high values mean tight binding; double strand, one strand shown; scale: fold enrichment (6-mer frequency, TF over GST control).
In the case of CCCCAG, the binding signal came to 0.963.
GTGTAA registered a binding signal of 0.884.
CATGTT: the binding signal came out at 0.972.
The same measure, in the same setting: then GGCAAT, with 0.928.
The same measure, in the same setting: then CGCGCG, with 0.914; and AAACTG, with 1.1.
Same read-out and setting: then TGAAGG, with 0.943.
Sequence CCTGGC showed a binding signal of 0.971.
The sequence CCGCAA returned a binding signal of 1.39.
Regarding CTTCTT, the binding signal was 1.65.
For GCGTCA, the binding signal amounted to 0.947.
On the same count and under the same terms, then ATCAAG, with 0.974; and CATTTT, with 1.22.
For the sequence ACACGG, the binding signal is 1.15.
For GAGAAA, the binding signal worked out at 0.678.
On the same count and under the same terms, then AGGTTC, with 0.901; and GATGGG, with 0.982; and AGAACA, with 0.997.
CCTGCC came in with a binding signal of 1.35.
Still for that read-out and setting: then TACGAG, with 0.893; and TTTTCC, with 2.37.
The same measure, in the same setting: then CCCTAG, with 0.921.
Still for that read-out and setting: then CGGACC, with 0.821.
CACTGA showed a binding signal of 0.964.
CCGTTA showed a binding signal of 0.986.
Still for that read-out and setting: then AGCATA, with 0.902; and CTGGTG, with 0.962.
Take ACTGTC: the binding signal is 0.955.
TGCACC came in with a binding signal of 1.16.
In turn, TGAAGA had a binding signal of 0.899.
Still for that read-out and setting: then AAGGGT, with 1.04; and GTGCTG, with 0.837; and CTGGGC, with 0.995.
Same read-out and setting: then GATCAA, with 0.899.
Still for that read-out and setting: then CAGCGC, with 0.955; and ATCAGA, with 0.909; and GCTAGG, with 0.906.
For the sequence GCGAAC, the binding signal stood at 0.842.
Same read-out and setting: then GACCGA, with 0.773.
